Measured values from paper PMC8024384.
These are yes or no findings as the source states them, for the method shown. Binding seen in cells or lysates may run through a third protein. Some entries that bind do so weakly or less than the wild type.

The chains behind the UniProt entries cited, without tags or fusion partners.
UniProt Q969H0: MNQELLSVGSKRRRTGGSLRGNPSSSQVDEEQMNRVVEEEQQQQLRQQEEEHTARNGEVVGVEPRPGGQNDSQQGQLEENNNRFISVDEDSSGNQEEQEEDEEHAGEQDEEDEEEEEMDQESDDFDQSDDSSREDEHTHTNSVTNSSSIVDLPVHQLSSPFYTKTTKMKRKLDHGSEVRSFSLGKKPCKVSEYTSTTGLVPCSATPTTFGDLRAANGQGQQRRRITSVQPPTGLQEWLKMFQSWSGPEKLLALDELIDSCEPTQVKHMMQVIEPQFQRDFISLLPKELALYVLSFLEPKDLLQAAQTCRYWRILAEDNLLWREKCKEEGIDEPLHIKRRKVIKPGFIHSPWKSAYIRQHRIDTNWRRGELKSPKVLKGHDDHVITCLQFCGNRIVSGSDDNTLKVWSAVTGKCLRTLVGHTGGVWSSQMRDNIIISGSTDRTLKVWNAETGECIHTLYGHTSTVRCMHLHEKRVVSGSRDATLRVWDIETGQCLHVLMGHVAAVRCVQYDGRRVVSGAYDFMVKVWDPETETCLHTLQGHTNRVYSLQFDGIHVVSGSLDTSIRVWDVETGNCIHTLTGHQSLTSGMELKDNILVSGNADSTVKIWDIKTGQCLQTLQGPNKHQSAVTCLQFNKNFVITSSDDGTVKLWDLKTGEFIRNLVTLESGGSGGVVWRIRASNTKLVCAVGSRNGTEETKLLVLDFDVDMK

Target: FBXW7 (human (in Ishikawa and HEC-1A cells)) (UniProt Q969H0)
Assay: co-IP; immunoprecipitation from Ishikawa cells with or without SOCS2-AS1 overexpression and from HEC-1A cells with or without SOCS2-AS1 knockdown; which protein was precipitated not given

binding: binds
B1: Aurora kinase A (enzyme, UniProt O14965 1-403)
chain: MDRSKENCISGPVKATAPVGGPKRVLVTQQFPCQNPLPVNSGQAQRVLCPSNSSQRIPLQAQKLVSSHKPVQNQKQKQLQATSVPHPVSRPLNNTQKSKQPLPSAPENNPEEELASKQKNEESKKRQWALEDFEIGRPLGKGKFGNVYLAREKQSKFILALKVLFKAQLEKAGVEHQLRREVEIQSHLRHPNILRLYGYFHDATRVYLILEYAPLGTVYRELQKLSKFDEQRTATYITELANALSYCHSKRVIHRDIKPENLLLGSAGELKIADFGWSVHAPSSRRTTLCGTLDYLPPEMIEGRMHDEKVDLWSLGVLCYEFLVGKPPFEANTYQETYKRISRVEFTFPDFVTEGARDLISRLLKHNPSQRPMLREVLEHPWITANSSKPSNCQNKESASKQS
